Measured values from PubChem BioAssay AID493014 (National Center for Advancing Translational Sciences (NCATS), 2011).
Out of some 340,000 compounds screened, about 170 (0.05%) were called active. Inconclusive means that the source gave no clear call. Such entries were picked first, then a sample of the others. Calls come from the whole dose curve; as a rule, active = well fitted inhibition curve with a large enough effect in the signal ratio, with a control signal flat (not every such curve was filed as active); inconclusive = small, poorly fitted or top-dose-only effect, or effect the other way, or a change in a side signal; inactive = flat fitted curve, though single readings scatter; the % refers to the signal ratio. Potencies beside an inconclusive call are fits to weak or partial responses and may not hold up.

Test: qHTS Assay to Find Inhibitors of Chronic Active B-Cell Receptor Signaling;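 for activity change, negative = inhibition: plate controls were basal doxycycline-induced cells for no effect and cells given 10 µM MG132 for full effect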
Settings: ABC-DLBCL IkBa-CBG/CBR reporter, luminescence ratio (green luciferase fused to IkBa over red control in TMD8 lymphoma cells), 4 h; activity change, negative = inhibition: at 46.1 µM (top of the series)
Method in brief: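 TMD8 human ABC-DLBCL cells with doxycycline-inducible IκBα–green luciferase fusion and unfused red luciferase, in 0.5% FBS medium; compounds up to 46 uM, 4 h at 37C. Green/red luminescence ratio, filter-overlap corrected, fitted to concentration-response curves.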
Potency is the fitted concentration of half-maximal effect.

| Structure (SMILES) | activity change, negative = inhibition | Potency |
| --- | --- | --- |
| O=C(NCCC1CCCCN1S(=O)(=O)c1cccs1)C(=O)Nc1cccc(F)c1 (stereo unspecified) | inconclusive: 14.9% | – |
| Cc1cc[n+]2cc(-c3cccc([N+](=O)[O-])c3)c(-c3cccc([N+](=O)[O-])c3)cc2c1 | inactive: 3.75% | – |
| COc1ccc(CN2C(=O)CCC2(C)C(=O)NCc2cccnc2)c(OC)c1 (stereo unspecified) | inconclusive: 4.96% | – |
| Cc1cc(C)c2c(N)c(C(=O)Nc3ccccc3C(F)(F)F)sc2n1 | – | inconclusive: 8.91 µM [falling, partial curve] |
| COc1ccccc1C/C(N)=N/OC(=O)c1cccc([N+](=O)[O-])c1C | inconclusive: -3.88% | – |
| COc1ccccc1-c1n[nH]c(=S)n1Cc1ccco1 | – | inconclusive: 31.6 µM [falling, single point] |
| O=c1c2cnn(-c3ccccc3)c2ncn1Cc1ccco1 | inconclusive: 19.7% | – |
| N#CC1=C(N)N2C(=C(C#N)C13CCN(Cc1ccccc1)CC3)Nc1ccccc12 | inconclusive: -0.001% | – |
| C/C(=N\NC(=O)c1c[nH]c2ccccc12)c1ccc2c(c1)OCO2 | – | inconclusive: 22.4 µM [falling, partial curve] |
| Nc1ccc(-c2c3ccc(=O)cc-3oc3cc(O)ccc23)cc1C(=O)O | inconclusive: 4.3% | – |
| CC(C)C(=O)Nc1ccc(N2CCN(C(=O)c3cccs3)CC2)cc1 | inconclusive: -6.21% | – |
| CC(C)(C)OC(=O)C[C@@H]1C/C=C\C[C@@H](CC(=O)NCCO)C(=O)N[C@H](C(C)(C)C)COC1=O | inconclusive: -0.395% | – |
| COc1ccc(CCn2c(C)cc(C(=O)CCl)c2C)cc1OC | – | inconclusive: 35.5 µM [falling, single point] |
| CC1CC(N(C(=O)c2ccco2)c2ccccc2)c2ccccc2N1C(=O)c1ccco1 (stereo unspecified) | – | inconclusive: 23.1 µM [rising, single point] |
| O=C(NCc1ccccc1Cl)C1=CC=CN2CCS(=O)(=O)N=C12 | inactive: -5.59% | – |
| Cc1ccc2cc(NC(=O)c3ccccc3)ccc2n1 | – | inconclusive: 35.5 µM [rising, single point] |
| Cc1ccc2nc3n(c(=O)c2c1)-c1ccccc1C(=O)NC3Cc1ccccc1 (stereo unspecified) | inconclusive: 0.905% | – |
| Cc1cccc(NC(=O)c2cc(-c3cc(C)ccc3O)n[nH]2)c1 | – | inconclusive: 31.6 µM [rising, partial curve] |
| CCOC(=O)C(C)On1c(-c2ccc(Cl)cc2)nc2ccc([N+](=O)[O-])cc21 (stereo unspecified) | inconclusive: 12.6% | – |
| CC(=O)c1ccc(NC(=O)COC(=O)Cn2cnc3ccccc32)cc1 | inactive: -6.68% | – |
| CN(/N=C/Cc1nnnn1-c1ccc(Cl)cc1)c1ccccc1 | – | inconclusive: 3.55 µM [falling, single point] |

Two neighbouring records from above, quoted:

| Structure (SMILES) | activity change, negative = inhibition | Potency |
| --- | --- | --- |
| CC1CC(N(C(=O)c2ccco2)c2ccccc2)c2ccccc2N1C(=O)c1ccco1 (stereo unspecified) | – | inconclusive: 23.1 µM [rising, single point] |
| O=C(NCc1ccccc1Cl)C1=CC=CN2CCS(=O)(=O)N=C12 | inactive: -5.59% | – |

Next records:

| Structure (SMILES) | activity change, negative = inhibition | Potency |
| --- | --- | --- |
| Cc1oc2c(c1C(=O)c1ccccc1)C(=O)C(=O)c1ccccc1-2 | – | inconclusive: 17.8 µM [rising, partial curve, poor fit] |
| O=C(COc1ccccc1[N+](=O)[O-])Nc1cccc(C(=O)Nc2ccccc2C(=O)O)c1 | inactive: -8.81% | – |
| CCCCOC(=O)c1ccc(NC(=S)NC(=O)c2c(Cl)cnn2CC)cc1 | inconclusive: -0.756% | – |
| O=[N+]([O-])c1ccc(/C=N/NC(=S)Nc2ccccc2F)o1 | inactive: -22.8% | – |
| COc1ccc(-c2cc3nc(C)n(N)c(=O)c3s2)cc1 | – | inconclusive: 11.2 µM [falling, partial curve] |
| O=C(c1ccc(Cl)cc1)C(Cn1cncn1)C(Sc1ccccc1)c1ccccc1 (stereo unspecified) | inconclusive: 32.8% | – |
| CCCC(C(=O)Nc1ccc(S(=O)(=O)Nc2nccs2)cc1)c1ccccc1 (stereo unspecified) | inconclusive: 7.44% | – |
| O=C(O)c1ccc(NC(=S)NC(=O)c2cccnc2)cc1 | – | inconclusive: 10 µM [falling, partial curve, poor fit] |
| COc1ccc(-n2cnc3scc(-c4ccc(OC)c(OC)c4)c3c2=O)cc1 | – | inconclusive: 22.4 µM [falling, partial curve, poor fit] |
| Cc1cc(C(=O)OCC(=O)Nc2ccccc2Cl)c(C)o1 | inconclusive: -24.9% | – |
| CCCC(=O)Nc1sc2c(c1C(=O)Nc1ccccn1)CCCC2 | – | inconclusive: 12.6 µM [rising, partial curve] |
| COc1cccc(COc2nc3c(c(=O)n(C)c(=O)n3C)n2C)c1 | inconclusive: 8.28% | – |
| COc1ccc(C)cc1NC(=O)Nc1ccccc1 | inconclusive: -12.9% | – |
| Cc1c(C(C)NC(=O)c2cc(COc3cccc4cnccc34)on2)cnn1C (stereo unspecified) | – | inconclusive: 14.1 µM [falling, single point] |
| C[C@H](NC(=O)[C@@H]1CSC2c3ccccc3C(=O)N21)C(=O)NCc1c(F)cccc1Cl (stereo partly specified) | inactive: 1.49% | – |
| COc1ccccc1N1CCN(C(=O)CSc2nc(-c3ccco3)cc(C(F)(F)F)n2)CC1 | inactive: 1.69% | – |
| CCOc1ccccc1NC(=O)Cn1nnc(C(=O)NCc2ccc3c(c2)OCO3)c1N | inconclusive: 4.83% | – |
| CCc1nc2ccccc2c(C(=O)OCC(=O)NC2CC2)c1C | inconclusive: -1.34% | – |
| COc1cc2c(cc1OC)CN(C(C)C(=O)N1CCc3ccccc31)CC2 (stereo unspecified) | inactive: -25% | – |
| C[C@@]12CCC=C[C@H]1[C@H](c1ccc3ccccc3c1)N(Cc1ccccc1)C2=O | inconclusive: -15% | – |
| CCNc1nc(NCC)nc(Oc2ccc(OCC)nn2)n1 | inconclusive: -1.03% | – |

| Structure (SMILES) | activity change, negative = inhibition | Potency |
| --- | --- | --- |
| Cc1cccc(NC(=O)c2ccc([N+](=O)[O-])s2)n1 | inconclusive: 5.78% | – |
| CNC(=S)N(Cc1ccc2c(c1)OCO2)C1CC(=O)N(c2ccc(F)cc2)C1=O (stereo unspecified) | inconclusive: -9.62% | – |
| Oc1ccc(-c2nc(-c3ccc(O)c(O)c3)cs2)cc1 | – | inconclusive: 3.55 µM [falling, partial curve, poor fit] |
| COc1cc(CC(=O)OCC(=O)NC2CCCC2)cc(OC)c1OC | inactive: -8.5% | – |
| O=C(Nc1ccc(Oc2ccccc2)nc1)C1CCCCN1Cc1ccco1 (stereo unspecified) | inconclusive: -13.8% | – |
| COc1ccc(C(=O)C[n+]2ccccc2C)cc1 | inactive: 6.69% | – |
| Cn1c2c(c(=O)n(C)c1=O)C(c1ccccc1Cl)C(C#N)=C(N)O2 (stereo unspecified) | inactive: 9.38% | – |
| CC(=O)Oc1ccc(/C=N/NC(=S)Nc2ccccc2)cc1 | – | inconclusive: 20.6 µM [cytotoxic, partial curve] |
| NNc1nc(-c2ccccc2)cc(-c2ccccc2O)n1 | inconclusive: 25.5% | – |
| O=C(NCc1cccnc1)c1cccc(NS(=O)(=O)c2ccc(Br)cc2)c1 | inconclusive: -14.5% | – |
| O=C1C(=O)N(CNc2cccnc2)c2ccccc21 | – | inconclusive: 18.4 µM [falling, single point] |
| O=C(NC(=S)N1CCN(c2ccc([N+](=O)[O-])cc2)CC1)c1ccc(F)cc1 | inactive: -16.9% | – |
| Cn1c(=O)n(Cc2ccccc2)c(=O)c2c1nc1n2CCN1Cc1ccco1 | inconclusive: -2.26% | – |
| COc1cc(Cl)c(CN2CCC(CO)(CCOc3ccccc3)CC2)cc1OC | inactive: -2.65% | – |
| COc1ccccc1CN1CCNC(=O)C1CC(=O)NCc1cn(C)nc1C (stereo unspecified) | inconclusive: 3.24% | – |
| CCC(C)c1ccc(O)c(/C=N/O)c1 (stereo unspecified) | inconclusive: 17.7% | – |
| CCOC(=O)N1CCN(S(=O)(=O)c2ccc(OCC(=O)OC)c(Cl)c2)CC1 | inactive: 1.09% | – |
| CCCOc1ncnc2c1[nH]c1ccc(C)cc12 | inconclusive: -5.15% | – |
| O=[N+]([O-])c1c(Nc2ccccc2)ccc2nonc12 | inactive: -0.891% | – |
| Cc1ccc(/C=C(\C#N)C(=O)NCc2ccco2)o1 | – | inconclusive: 35.5 µM [falling, single point] |
| O=C(Nc1ccc(C2=NCCN2)cc1)c1ccc(C(=O)Nc2ccc(C3=NCCN3)cc2)c([N+](=O)[O-])c1 | inconclusive: 0.752% | – |

| Structure (SMILES) | activity change, negative = inhibition | Potency |
| --- | --- | --- |
| Cc1ccc2nc(SCC(=O)c3ccccc3)nc(=O)n2c1 | – | inconclusive: 25.9 µM [rising, single point] |
| CC1(C)CN=c2s/c(=C\c3ccc(Cl)cc3)c(=O)n2C1 | – | inconclusive: 25.1 µM [falling, single point] |
| COc1ccc(CN(C)C(=O)C23CC4CC(CC(C4)C2)C3)c(OC)c1 | inactive: 12.1% | – |
| CNC(=O)NC(=S)NC(=O)c1ccccc1Cl | – | inconclusive: 11.2 µM [falling, partial curve] |
| CN(C)c1cc(Nc2ccc(O)cc2)c([N+](=O)[O-])c2nonc12 | inactive: 2.9% | – |
| O=C(c1cccc(COc2cccc3ccccc23)c1)N1CCCC1 | – | inconclusive: 18.4 µM [falling, single point] |
| CCCc1cc(=O)oc2cc(OCC(=O)NC3CCN(Cc4ccccc4)CC3)ccc12 | inconclusive: 2.06% | – |
| CCN1CCN(c2nnc(-c3ccc(F)cc3)c3ccccc23)CC1 | inactive: 4.6% | – |
| CCOc1ccccc1Cn1c(=O)oc2ccc(C)cc21 | inconclusive: 5.93% | – |
| COc1c(/C=N/Nc2nc(N3CCCCC3)nc(N3CCCCC3)n2)cccc1[N+](=O)[O-] | inactive: -0.127% | – |
| Cn1c(SCC(=O)NNC(=O)Nc2ccc(Cl)cc2)nnc1-c1ccccc1 | inconclusive: -0.429% | – |
| Cc1ccc(NC(=O)c2cc(-c3cccs3)on2)cc1 | – | inconclusive: 18.4 µM [falling, partial curve] |
| O=C(Nc1ccccc1Br)N1CCC(CN2CCCC2)CC1 | inconclusive: -2.22% | – |
| OC1CCN(c2cc(-c3ccccc3)nc3cc(-c4ccc(F)cc4)nn23)CC1 | inconclusive: -15.3% | – |
| CCN(CC)CCN1c2ccccc2Sc2ccccc21 | inconclusive: -2.32% | – |
| CN1C(=O)/C(=C/c2ccco2)SC1=Nc1cccc(C(=O)O)c1 | inconclusive: 7.66% | – |
| COc1ccc(CN2CCC(CO)(CCOc3ccccc3)CC2)cc1C | inactive: -0.387% | – |
| Cc1cc([N+](=O)[O-])ccc1Nc1nc2ccccc2n2cnnc12 | inconclusive: -21.6% | – |

Whole records from above. Values in the order: activity change, negative = inhibition	Potency
COc1c(/C=N/Nc2nc(N3CCCCC3)nc(N3CCCCC3)n2)cccc1[N+](=O)[O-] in the list: inactive: -0.127%	–
CC1(C)CN=c2s/c(=C\c3ccc(Cl)cc3)c(=O)n2C1 in the list: –	inconclusive: 25.1 µM [falling, single point]
CCN1CCN(c2nnc(-c3ccc(F)cc3)c3ccccc23)CC1 in the list: inactive: 4.6%	–
OC1CCN(c2cc(-c3ccccc3)nc3cc(-c4ccc(F)cc4)nn23)CC1 in the list: inconclusive: -15.3%	–
